In assay [1] the target is type III-E CRISPR-Cas effector gRAMP from Candidatus "Scalindua brodae" (Candidatus "Scalindua brodae"). In words: cryo-EM structure.
Assay [2] has the same target. Nature of the assay: cryo-EM structure. This is another data set of the same source.

Read-outs that look alike come from different tables or passages of the source. Results are given in words; binding and its absence hold for the method and conditions named. Binding seen in cells or lysates may run through a third protein. Binding calls can cover weak binding; strength is not graded here.

Regarding “caspase-like peptidase TPR-CHAT (from UniProt A0A0B0EKL4)”, the binding entry in assay [1] and in assay [2] was “binds” throughout.

The values are drawn from publication doi:10.1101/2022.09.07.506877.
